# The list shows a part of the results. These are further read-outs of the screen, such as a control signal, another cell line or another target. No call is given for them. Compounds called inactive in the main read-out are mostly missing here. Potencies come from curve fits of mixed quality, noted in brackets.
# Assay: qHTS Assay for Lipid Storage Modulators in Drosophila S3 Cells;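 on cell number change: cells counted by Cell Tracker Red CMTPX staining in the red channel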
# Conditions: BODIPY lipid droplet fluorescence, 18-24 h; for cell number change: measured here: cell count max response, cells fed with added oleic acid
# How it was run: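 Drosophila S3 cells got compounds at several concentrations plus oleic acid (400 uM solution). Laser-scanning cytometry with 488 nm excitation read lipid droplets at 500-530 nm and cells at 575-640 nm. Percent activity was relative to 20 uM Triacsin C.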
# [1] = measured here: cell number channel AC50, cells fed with added oleic acid
# [2] = measured here: lipid fluorescence (Fed channel) AC50, cells fed with added oleic acid
SMILES,AC50 [1],cell number change [%],AC50 [2]
O=C1COc2ccc(C(=O)NC3CC3)cc2N1,"1.46 µM [rising, full curve, poor fit]",–,–
Cc1ccc(NC(=O)c2cc(S(=O)(=O)N3CCCCC3)c[nH]2)cc1F,–,15.6,"3.26 µM [falling, single point]"
C/C(N)=C(/C#N)C(=O)COC(=O)C1CCN(C(=O)c2ccc(Cl)cc2)CC1,"0.326 µM [falling, full curve]",-10.5,–
O=C(COC(=O)CCC(=O)c1ccc(Cl)cc1)NCC1CCCO1 (stereo not given),"20.6 µM [rising, partial curve]",55.9,–
Cc1nnc(Sc2nc3ccccc3o2)c2ccccc12,–,-3.11,"3.26 µM [rising, single point]"
Nc1ccc(NC(=O)c2cccs2)c(Cl)c1,–,21.1,"16.4 µM [rising, single point]"
O=C(c1ccc(S(=O)(=O)Nc2ccccc2F)cc1)N1CCCC1,–,21.5,–
O=C(c1csc2c1CCCC2)N1CCCCC1,–,-5.24,"16.4 µM [falling, partial curve]"
CC(=O)Nc1ccc(S(=O)(=O)N(Cc2cc3ccc(C)cc3[nH]c2=O)CC2CCCO2)cc1 (stereo not given),–,-2.95,–
Cc1ccc(-n2nnc3ccccc3c2=O)cc1C,–,7.41,"2.59 µM [rising, full curve]"
CC(CCc1ccccc1)N1CCN(Cc2ccccc2)CC1 (stereo not given),"0.231 µM [falling, full curve, poor fit]",-24.6,–
CCSc1ncnc2c1oc1ccccc12,–,-5.39,"4.11 µM [rising, full curve]"
Cc1ccc(S(=O)(=O)Nc2ccc(N3CCCCC3)cc2)cc1,–,-6.15,–
CCC(CO)Oc1cc(NC(=O)c2ccc(C)cc2)c2ncn(C(C)C)c2c1 (stereo not given),–,10.7,"0.58 µM [falling, single point]"
NC(=O)CC(NC(=O)Cc1cccc2ccccc12)c1ccc(N2CCc3ccccc3C2)c([N+](=O)[O-])c1 (stereo not given),–,16.6,"13 µM [rising, single point]"
CC(C(=O)N1CCCCC1)N(C)CC(=O)Nc1cccc(F)c1 (stereo not given),–,-12.6,"0.164 µM [falling, full curve, poor fit]"
COCCN(CCOC)c1nc(-c2ccc(Cl)cc2)nc2ccccc12,–,8.78,"1.3 µM [falling, full curve]"
Cc1ccc(CN2CCN(CC(=O)O)C2=O)cc1,–,11.9,"0.0206 µM [rising, full curve, poor fit]"
CCCc1cc(=O)oc2c3c(cc(OCC(=O)NCC4CCC(C(=O)O)CC4)c12)OC(C)(C)CC3 (stereo not given),–,-18.1,"3.66 µM [falling, single point]"
CC(=O)c1ccc(OCC(=O)Nc2c(C)nn(-c3ccccc3)c2C)cc1,–,–,"6.51 µM [rising, single point]"
Oc1[nH]c2ccccc2c1N=Nc1nc2ccccc2s1,–,–,"6.51 µM [rising, single point]"
Clc1ccc(-c2nnc(-c3ccco3)nc2N2CCCCC2)cc1,–,–,"4.11 µM [rising, single point]"

# Some of the entries above, set out differently:
SMILES	AC50 [1]	cell number change [%]	AC50 [2]
CC(C(=O)N1CCCCC1)N(C)CC(=O)Nc1cccc(F)c1 (stereo not given)	–	-12.6	0.164 µM [falling, full curve, poor fit]
COCCN(CCOC)c1nc(-c2ccc(Cl)cc2)nc2ccccc12	–	8.78	1.3 µM [falling, full curve]

# The list continues.

SMILES,AC50 [1],cell number change [%],AC50 [2]
C/C(=N\OC(=O)C1CC1)C1CC1c1ccc(F)cc1 (stereo not given),–,-42.2,–
O=[N+]([O-])c1ccc2nonc2c1Nc1ccccc1,–,-7.42,"29.1 µM [falling, single point]"
CC(C)C(NC(=O)c1ccco1)C(=O)OCC(=O)c1ccccc1 (stereo not given),–,3.54,"29.1 µM [rising, single point]"
Cc1cc(C)n(C(=O)N(c2ccccc2)c2ccccc2)n1,–,-13.5,"29.1 µM [rising, single point]"
O=C(c1cnn(C(=O)c2ccccc2)c1)c1ccccc1O,–,24.2,"13 µM [rising, single point]"
O=S(=O)(c1ccc(Cl)s1)N1CCN(CCc2ccccc2)CC1,–,16.8,–
O=C(Nc1nc(-c2ccccn2)cs1)c1ccc2c(c1)OCCO2,"14.6 µM [falling, partial curve]",-50.6,"6.51 µM [falling, single point]"
Cc1nc2sc(C(c3cccs3)N3CCN(c4ccccc4)CC3)c(O)n2n1 (stereo not given),"6.51 µM [falling, single point]",2.94,"5.8 µM [falling, single point]"
O=C(C1CCN(S(=O)(=O)c2cccs2)CC1)N1CCCC(C(F)(F)F)C1 (stereo not given),–,-1.17,–
Cc1ccc(/C=C/C(=O)O)cc1S(=O)(=O)NCCO,"18.4 µM [falling, single point]",-63,–
COc1cc(S(=O)(=O)N2CCN(c3ccccc3)CC2)ccc1F,–,-25.5,"29.1 µM [falling, single point]"
COc1ccc(C(=O)Nc2nc3c(s2)Cc2cc(OC)ccc2-3)cc1,–,-15.8,"0.00651 µM [falling, full curve, poor fit]"
O=C(NCc1cccs1)c1ccccc1,"14.6 µM [rising, single point]",37.1,–
O=Nc1ccc(NOC(=O)c2ccccc2Br)cc1,–,2.93,"3.26 µM [rising, partial curve, poor fit]"
CC(C)(C)c1cc(NC(=O)COC(=O)c2ccc(O)cc2O)n(-c2ccccc2)n1,"29.1 µM [rising, single point]",231,"29.1 µM [rising, partial curve]"
NC(=S)NN=C(c1ccccc1)c1ccccc1,–,22.5,"25.9 µM [rising, single point]"
Cc1c(CN2CCC(CO)(CC3CCCCO3)CC2)cnn1C (stereo not given),–,-14.5,–
CCCc1nnc(NC(=O)Nc2ccc(OC)cc2)s1,"29.1 µM [falling, single point]",-43.1,"32.6 µM [falling, partial curve, poor fit]"
COc1c(Cl)ccc(Cl)c1C(=O)NC(=S)N1CCOCC1,"0.0731 µM [falling, full curve, poor fit]",-16.9,"0.082 µM [falling, single point]"
COc1ccc(CNC(=O)CN(Cc2ccc(OC)cc2)C(=O)CCC(=O)Nc2nccs2)cc1,"0.146 µM [falling, full curve, poor fit]",-12.8,–
O=C(CNS(=O)(=O)c1cccc(Cl)c1)Nc1ccc(-c2nc3ccccc3s2)cc1,–,-10.3,"0.92 µM [falling, full curve, poor fit]"
O=C(O)CCCCCCNC(=O)c1cncc(O)c1,–,11.3,–

# Record cards, from the list above. Values in the order: AC50 [1]	cell number change [%]	AC50 [2]
# O=Nc1ccc(NOC(=O)c2ccccc2Br)cc1 is entered as –	2.93	3.26 µM [rising, partial curve, poor fit]
# O=C(O)CCCCCCNC(=O)c1cncc(O)c1 is entered as –	11.3	–

# (more compounds)

SMILES,AC50 [1],cell number change [%],AC50 [2]
CC(C)C(c1nnnn1C1CCCC1)N1CCOCC1 (stereo not given),"4.61 µM [rising, single point]",9.11,–
O=C(Cc1cccs1)Nc1nnc(SCc2ccc(C(F)(F)F)cc2)s1,"18.4 µM [falling, single point]",-34.4,"16.4 µM [falling, single point]"
CCOc1cnc(-c2c(-c3c(F)cccc3Cl)noc2C)o1,–,-15.4,–
Fc1ccc(CN2CC[C@H]3C=CCc4cccc(c43)C2)cc1,"20.6 µM [falling, partial curve]",-53.5,–
O=C(CSc1n[nH]c(-c2ccccc2)n1)Nc1ccccc1O,–,7.33,–
CC1CCCN(CCC(=O)Nc2ccc(F)c(F)c2)C1 (stereo not given),–,9.52,"1.64 µM [rising, partial curve]"
COc1ccc(OCCNC(=O)c2ccccc2OCC(=O)Nc2ccc(NC(C)=O)cc2)cc1,–,-2.49,"4.61 µM [rising, single point]"
CC(C)NC(=O)c1c(O)c2ccccc2[nH]c1=O,–,3.77,"10.3 µM [rising, partial curve]"
Cn1c(=O)c2cc(S(=O)(=O)NC(Cc3ccccc3)C(=O)NCC3CCCO3)ccc2n(C)c1=O (stereo not given),–,23,"29.1 µM [rising, single point]"
CCOC(=O)c1c(CC(C)C)csc1NC(=O)COC(=O)c1cc(OC)c(OC)cc1[N+](=O)[O-],–,4.45,"4.11 µM [falling, single point]"
Cc1ccc(-n2c(SCC(=O)Nc3ccc4c(c3)OCCO4)nnc2-c2ccco2)cc1,–,-0.638,"0.651 µM [rising, full curve]"
NS(=O)(=O)c1cccnc1Nc1c(Cl)cccc1Cl,–,-9.59,–
CCCC1(c2ccccc2)NC(=O)N(CC(=O)Nc2cc(C)on2)C1=O (stereo not given),–,54.1,"6.51 µM [falling, single point]"
COc1cccc(C(=O)NCCSc2ccc(F)cc2)c1,–,-32.6,"29.1 µM [falling, single point]"
Cc1ccc(S(=O)(=O)NNC(=O)Cc2cccn2C)cc1,"5.8 µM [rising, partial curve, poor fit]",–,"4.11 µM [rising, partial curve, poor fit]"
Cc1cc2oc(=O)c3c(c2cc1OCc1nn[nH]n1)CCCC3,–,-0.967,–
Cc1c(C2OC(=O)C3(CCCCC3)C(=O)C2(C)C)c(=O)n(-c2ccccc2)n1C (stereo not given),–,-19.6,–
CC1(C)OC(c2ccccc2)=C/C(=C\C=N\NC(=O)c2ccncc2)O1,–,29.4,–
O=C(COc1ccc(Cl)cc1Cl)N(Cc1ccco1)C1CCS(=O)(=O)C1 (stereo not given),–,0.404,"0.13 µM [falling, full curve, poor fit]"
COc1ccccc1-c1cc(C(=O)N/N=C/c2ccoc2)c2ccccc2n1,–,–,"0.0231 µM [rising, full curve, poor fit]"
Cc1cccc(CC(=O)N2CCOCC2)c1,–,3.44,"3.66 µM [rising, full curve]"
CCOc1ccccc1NC(=O)CCn1ccnc1,"16.4 µM [rising, single point]",38.3,"29.1 µM [rising, single point]"
